Hit rate of the full screen: of about 240,000 compounds, about 1,300 (0.54%) were called active. Inconclusive results, whose numbers are uncertain, are shown with a selection of clear calls. Calls follow the shape of the dose curve; as a rule, active = well fitted inhibition curve with a large enough effect; inconclusive = small, poorly fitted or top-dose-only effect; inactive = flat fitted curve, though single readings scatter. A potency beside an inconclusive call is a rough fit, not a confirmed value. *1 amine or outer side, *2 acyl side, *3 side chain or, on linkers, in order; H or OH if unused. Where a SMILES comes first, the peptide text is derived from it. Bridges are numbered along the chain shown (N, C = ends). Roman numbers before positions name the chains, in order. [ ]: non-standard residue; d: D form. Actinocin(9to1) = Cc1c2oc3c(C)ccc(C(=O)[*:1])c3nc-2c(C(=O)[*:2])c(N)c1=O; aThr = C[C@H](O)[C@H](N)C(=O)O; NMeV = CN[C@H](C(=O)O)C(C)C; Sar = CNCC(=O)O
What follows are compounds tested against ATP-dependent DNA helicase Q1 (Homo sapiens) (UniProt P46063) (assay: qHTS Assay for Inhibitors of RecQ-Like Dna Helicase 1 (RECQ1)). Settings: RECQ1 DNA unwinding, red fluorescence kinetic read; activity, negative = inhibition: at 57.3 µM (top of the series); series mostly up to 57.3 µM.
Text: Survival of cells and the faithful propagation of the genome depend on elaborate mechanisms of detecting and repairing DNA damage. Treatment of advanced cancer relies on radiation therapy or chemotherapy, which kill cancer cells by causing extensive DNA damage. It is often found, that cancer cells develop resistance to therapy through enhanced activity of DNA repair functions; this has led to an increased interest in developing drugs that interfere with DNA repair, which could sensitize cancer cells to conventional therapy.
This validation qHTS assay pertains to human RECQ1, which is important in resolving abnormal DNA structures formed during replication or homologous recombination. Shutting down the expression of RECQ1 leads to chromosomal instability and higher radiation sensitivity in cultured cells.
The validation assay was a fluorescence quenching based kinetic qHTS for RECQ1 Helicase DNA unwinding. The activity was measured as ATP-dependent separation of a 20-bp DNA duplex extended by 30-nt single-stranded tails (forked duplex). The forked DNA substrate was tagged with rhodamine fluorophore (carboxytetramethyl rhodamine, TAMRA) and BHQ-2 (Black Hole Quencher 2) dark quencher. Strand separation results in an increase in the fluorescence of TAMRA (excitation 525 nm, emission 598 nm). This substrate construct operates in a red-shifted region where very few compound library members have been noted to fluoresce (PubChem AIDs 593 and 594). An additional feature of the assay is the inclusion of 2.5 ug/ml poly (dIdC), to reduce interference by compounds such as DNA intercalators, a major source of false inhibitors.
Opher Gileadi, Structural Genomics Consortium, University of Oxford
Screening Center PI: Austin, C.P.
Screening Center: NIH Chemical Genomics Center [NCGC]
Three uL of reaction buffer (25 mM Tris-HCl (pH 8.0), 5 mM NaCl, 2 mM MgCl2, 1mM DTT, 0.01% Tween- 20, and 2.5 ug/ml poly(dI-dC), including enzyme (50 nM RECQ1T1), were dispensed into a 1536-well Greiner black assay plate via solenoid-valve based nanoliter dispensers. Compounds (23 nl each in columns 5-48) and control (23 nl each in column 2 as dose-response) were transferred via a Kalypsys pintool equipped with a 1536-pin array. The plates were incubated for 15 min at room temperature, and then 1 ul of substrates (200 nM DNA and 2 mM ATP, final concentrations) was added to start the reaction. The plate was transferred into a ViewLux high-throughput CCD imager where the reaction progress was measured in a discontinuous kinetic mode (two reads spaced 2 hours apart, with intermediate room temperature incubation of the covered assay plate) by using standard red-fluorescence optics (excitation filter 525 nm, emission filter 598 nm). Enzyme-free and vehicle (DMSO) controls were included for signal normalization.
Also: nearly all actives have a fitted effect of over 30% in size.
Potency is read from the fitted curve at half-maximal effect.

Sequences of proteins named here, by UniProt entry; tags and fusion partners are left off. A change or cut given only in a name is not applied to a line headed by its entry.
UniProt P46063: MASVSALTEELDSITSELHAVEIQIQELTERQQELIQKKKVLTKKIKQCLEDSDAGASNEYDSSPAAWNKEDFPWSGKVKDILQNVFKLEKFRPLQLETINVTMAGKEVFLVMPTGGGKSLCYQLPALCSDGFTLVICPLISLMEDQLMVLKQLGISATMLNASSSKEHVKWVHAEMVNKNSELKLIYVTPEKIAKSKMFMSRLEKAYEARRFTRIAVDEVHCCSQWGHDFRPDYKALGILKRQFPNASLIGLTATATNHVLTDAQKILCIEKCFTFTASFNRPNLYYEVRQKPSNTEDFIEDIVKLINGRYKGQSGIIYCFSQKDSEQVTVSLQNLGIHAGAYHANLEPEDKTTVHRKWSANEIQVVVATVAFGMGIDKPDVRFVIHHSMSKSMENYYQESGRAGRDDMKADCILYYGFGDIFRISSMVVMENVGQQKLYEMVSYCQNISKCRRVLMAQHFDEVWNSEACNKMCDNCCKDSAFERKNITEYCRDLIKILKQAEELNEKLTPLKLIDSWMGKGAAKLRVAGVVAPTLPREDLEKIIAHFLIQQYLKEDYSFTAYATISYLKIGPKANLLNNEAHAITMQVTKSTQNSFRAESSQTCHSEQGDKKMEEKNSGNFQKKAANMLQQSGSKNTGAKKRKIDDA

Structure (SMILES) | Potency | activity, negative = inhibition | outcome
COc1ccc(OC)c(-c2csc(NC(=O)Cn3[nH]c(=O)c4ccccc4c3=O)n2)c1 | active: 28.2 µM | – | –
CCOC(=O)Cc1cc(=O)n(-c2nc3ccccc3s2)[nH]1 | inconclusive: 35.5 µM [inhibitor, single point] | – | –
O=C(N/N=C/c1c[nH]c2ccccc12)c1cc(-c2ccccc2)n[nH]1 | active: 25.1 µM | – | –
COc1cc(C(=O)NC(=S)Nc2ccc(N3CCCC3)cc2)cc(OC)c1OC | inconclusive: 31.6 µM [inhibitor, single point] | – | –
CN1CCc2c(OCc3ccc(F)cc3)cccc2C1=O | inconclusive: 0.199 µM [inhibitor, full curve] | – | –
Cc1cccc(CN(C)CCc2ccccn2)c1 | inconclusive: 6.31 µM [inhibitor, single point] | – | –
COc1ccc(-n2cccc2/C=C2/NC(=O)N(c3cccc(Cl)c3)C2=O)cc1 | – | inactive: -7.72% | –
O=[N+]([O-])c1ccc(/C=N/n2c(CO)nc3ccccc32)s1 | inconclusive: 0.224 µM [inhibitor, full curve, poor fit] | – | –
O=C(Cn1ccc([N+](=O)[O-])n1)NCc1cccs1 | inconclusive: 6.31 µM [inhibitor, single point] | – | –
C/C(=N\Nc1nnc2c3ccccc3n(C)c2n1)c1ccc(C)o1 | – | inactive: -40.4% | –
O=C(Nc1cccc(-c2cnc3ccccc3n2)c1)c1cccc(NC(=O)c2ccco2)c1 | inconclusive: 31.6 µM [inhibitor, single point] | – | –
CCC(C)NC(=O)c1ccccc1NC(=O)c1ccc(CSc2ccc(C)cc2)cc1 (stereo not drawn) | active: 5.01 µM | – | –
COCC(=O)N(Cc1cc2ccccc2[nH]c1=O)c1ccc(OC)cc1 | inconclusive: 1.58 µM [inhibitor, full curve, poor fit] | – | –
O=C(CSc1ccncc1)Nc1ccc(S(=O)(=O)Nc2nccs2)cc1 | inconclusive: 39.8 µM [inhibitor, single point] | – | –
COc1ccccc1/C=c1\sc2nc(-c3ccco3)nn2c1=O | inconclusive: 31.6 µM [inhibitor, single point] | – | –
Cn1c(-c2ccccc2)cc(=O)c2ccccc21 | – | – | inactive
C/C(=C1/SC(=S)N(CCC(=O)O)C1=O)c1ccc(O)cc1 | inconclusive: 35.5 µM [inhibitor, single point] | – | –
Cn1nc(C(=O)Nc2nc3ccccc3[nH]2)c2ccccc2c1=O | inconclusive: 35.5 µM [inhibitor, single point] | – | –
S=C(S)OC1CC2CC1C1CCCC21 (stereo not drawn) | inactive | – | –
O=C(N/N=C/c1ccc(-c2cccc([N+](=O)[O-])c2)o1)c1ccc([N+](=O)[O-])cc1 | – | inactive: -8.67% | –
CCN(CC)c1ccc2oc(=O)c(C)nc2c1 | inconclusive: 25.1 µM [inhibitor, single point] | – | –
O=C1N[C@@H]2[C@H](CCCCC(=O)Oc3ccc([N+](=O)[O-])cc3)SC[C@H]2N1 | – | inactive: -7.01% | –
Cc1c2oc3c(C)ccc(C(=O)N[C@@H]4C(=O)N[C@@H](C(C)C)C(=O)N5CCC[C@@H]5C(=O)N(C)CC(=O)N(C)[C@@H](C(C)C)C(=O)O[C@H]4C)c3nc-2c(C(=O)N[C@@H]2C(=O)N[C@@H](C(C)C)C(=O)N3CCC[C@@H]3C(=O)N(C)CC(=O)N(C)[C@@H](C(C)C)C(=O)O[C@H]2C)c(N)c1=O (I: [aThr]V[dP][Sar][NMeV] / II: [aThr]V[dP][Sar][NMeV]; ester I:1-I:C, II:1-II:C; linker I:N-II:N via Actinocin(9to1)) | active: 2.82 µM | – | –

Structure (SMILES) | Potency | activity, negative = inhibition | outcome
CCc1ccc(NC(=O)CSc2nnc(Cc3cccn3C)n2-c2ccc(OC)cc2)cc1 | inconclusive: 39.8 µM [inhibitor, partial curve] | – | –
COc1cc(/C=N/NC(=O)COc2c(C)cc([N+](=O)[O-])cc2C)ccc1OC(=O)c1ccccc1 | active: 28.2 µM | – | –
COc1ccc(/C=N/c2sc3c(c2C#N)CCN(Cc2ccccc2)C3)c(O)c1 | inconclusive: 35.5 µM [inhibitor, single point] | – | –
CCc1ccc(NC(=O)Cn2c(SC)nc3ccccc32)cc1 | inconclusive: 35.5 µM [inhibitor, single point] | – | –
C=CCOc1ccc(C2OC34CCCCC3C(C#N)(C#N)C2(C#N)C(=N)O4)cc1 (stereo not drawn) | – | inactive: -7.13% | –
CC1CCCCC1NC(=S)NC(=O)c1ccccc1Br (stereo not drawn) | active: 39.8 µM | – | –
O=C(CCCN1C(=O)/C(=C\c2cccs2)SC1=S)NNC(=O)c1cccnc1 | active: 2.82 µM | – | –
CNCc1ccccc1Sc1cccc2ccccc12 | inconclusive: 39.8 µM [inhibitor, single point] | – | –
O=C(O)C1Nc2c(O)cccc2C2C=CCC12 (stereo not drawn) | active: 3.98 µM | – | –
CC(=O)Nc1ccc(OC(=O)c2c(-c3ccccc3Cl)noc2C)cc1 | inconclusive: 22.4 µM [inhibitor, partial curve] | – | –
CCn1c(SCc2nc3sc(C(=O)O)c(C)c3c(=O)[nH]2)nc2ccccc21 | inconclusive: 35.5 µM [inhibitor, single point] | – | –
CC(=O)Nc1ccc(SC[C@H](Cc2ccccc2)N2CCN(CCc3ccccc3)CCC2=O)cc1 | inconclusive: 0.158 µM [inhibitor, full curve, poor fit] | – | –
CC(=O)Nc1ccc(OCC(O)CN2CCCCC2C)cc1 (stereo not drawn) | inconclusive: 0.199 µM [inhibitor, full curve] | – | –
O=C(Nc1cc2c(oc1=O)CCCC2=O)c1ccc(Cl)cc1 | active: 14.1 µM | – | –
C=CCn1c(SCC(=O)c2ccc(CNC(C)=O)o2)nc2scc(C3CC3)c2c1=O | inconclusive: 22.4 µM [inhibitor, partial curve] | – | –
CN(c1ccc(F)cc1)S(=O)(=O)c1ccc(Cl)c(C(=O)Nc2ccc3c(c2)CCC3)c1 | active: 31.6 µM | – | –
O=Cc1ccc(OC2C=CC(c3ccccc3)OC2CO)cc1 (stereo not drawn) | – | – | inactive [at 11.5 µM]
CSc1nsc(/C=C/Nc2ccc(F)cc2F)c1C#N | – | – | inactive
CCN1CCCC1CN=Cc1c(O)n(-c2ccccc2)c(=O)c2ccccc12 (stereo not drawn) | inconclusive: 1.12 µM [inhibitor, full curve] | – | –
CC1O[C@@H](O[C@@H]2C(O)C[C@H](O[C@@H]3C(O)C[C@@H](OC4CC[C@@]5(C)C6CC(O)[C@@]7(C)C(C8=CC(=O)OC8)CC[C@@]7(O)C6CC[C@@H]5C4)OC3C)OC2C)CC(O)[C@H]1O (stereo partly drawn) | – | – | inactive
COc1ccc(CCn2c(=S)[nH]c3cc(C(=O)N4CCOCC4)ccc3c2=O)cc1OC | active: 35.5 µM | – | –
O=C(O)c1cccc(-n2cccc2/C=N/O)c1 | inconclusive: 22.4 µM [inhibitor, single point] | – | –
O=S(=O)(c1ccccc1)N1CCN=C1SCc1ccc(Cl)c(Cl)c1 | inconclusive: 20 µM [inhibitor, partial curve] | – | –

Structure (SMILES) | Potency | activity, negative = inhibition | outcome
CC(C)C[C@H](NC(=O)c1[nH]cnc1C(=O)N[C@@H](C)C(=O)OC(C)(C)C)C(=O)OC(C)(C)C | inconclusive: 0.158 µM [inhibitor, full curve, poor fit] | – | –
CC(C)(O)C1Cc2cc(/C=C/C(=O)O)c(O)cc2O1 (stereo not drawn) | – | inactive: -5.95% | –
CCOc1ccc(S(=O)(=O)Nc2nc3ccccc3nc2-n2ccc(=NC(=O)c3ccccc3C)cc2)cc1 | inconclusive: 35.5 µM [inhibitor, single point] | – | –
Cc1ccc(OCCN2CCN(CC(O)Cn3c4ccccc4c4ccccc43)CC2)cc1 (stereo not drawn) | – | inactive: -5.12% | –
O=C(Cn1cnc2c(cnn2-c2ccc(Cl)cc2)c1=O)NCC1CCCO1 (stereo not drawn) | inconclusive: 14.1 µM [inhibitor, partial curve] | – | –
CC(C)CC(=O)NC(=S)Nc1cccc(NC(=O)c2ccccc2)c1 | inconclusive: 3.16 µM [inhibitor, full curve] | – | –
Cc1cccc(C=Nc2ccc3c4c(cccc24)CC3)c1O | – | inactive: -9.14% | –
CCCNC(=O)c1nnsc1S(=O)c1ccc(Cl)cc1 (stereo not drawn) | – | inactive: -0.455% | –
O=C(COC(=O)CCC(NC(=O)OCc1ccccc1)C(=O)OCC(=O)Nc1ccccc1)Nc1ccccc1 (stereo not drawn) | inconclusive: 39.8 µM [inhibitor, single point] | – | –
CN(C)c1cc(Cl)c2nonc2c1N | active: 28.2 µM | – | –
Cc1ccc(N2C(=O)C3C(C2=O)C(C(=O)c2ccc(Cl)cc2)N2CCCC32)cc1 (stereo not drawn) | active: 25.1 µM | – | –
O=C1CSC(=S)N1/N=C/c1ccc(O)c(O)c1O | active: 2.24 µM | – | –
COc1ccc(CCn2c(-c3ccc(Cl)cc3)n[nH]c2=S)cc1OC | inconclusive: 31.6 µM [inhibitor, single point] | – | –
CCS(=O)(=O)C1=NN2C(=N)/C(=C\c3ccc(SCc4ccco4)o3)C(=O)N=C2S1 | inconclusive: 3.98 µM [inhibitor, single point] | – | –
N=C(N)SCCc1ccc(OCc2ccc([N+](=O)[O-])cc2)cc1 | inconclusive: 2.82 µM [inhibitor, partial curve, poor fit] | – | –
[N-]=C=C1C(=S)NC(=O)[C@H]([n+]2ccccc2)[C@H]1c1ccc(Cl)cc1 | active: 31.6 µM | – | –
CN1CCN(C(=S)NC(=O)c2ccc(C(C)(C)C)cc2)CC1 | – | inactive: -5.1% | –
O=c1cc(-c2ccccc2O)oc2c(O)c(O)ccc12 | active: 3.16 µM | – | –
CC1(C)CO[C@H](CC(=O)O)CN1 | – | inactive: -0.744% | –
NC(=O)[C@H]1CC2(CC(c3cccc(NC(=O)CC(c4ccccc4)c4ccccc4)c3)=NO2)CN1C(=O)C(c1ccccc1)c1ccccc1 (stereo partly drawn) | inconclusive: 6.31 µM [inhibitor, single point] | – | –
CC(=O)Nc1ccc(-n2nnnc2SCC(=O)Nc2cccc(NC(=O)c3ccco3)c2)cc1 | inconclusive: 39.8 µM [inhibitor, single point] | – | –
COc1cccc2c1C(=O)c1c(O)c3c(c(O)c1C2=O)C[C@@](O)(C(=O)CO)C[C@@H]3O[C@H]1C[C@H](N)[C@H](O)[C@H](C)O1 | active: 31.6 µM | – | –

Three entries from above, as tab-separated lines:
Structure (SMILES)	Potency	activity, negative = inhibition	outcome
CC1(C)CO[C@H](CC(=O)O)CN1	–	inactive: -0.744%	–
NC(=O)[C@H]1CC2(CC(c3cccc(NC(=O)CC(c4ccccc4)c4ccccc4)c3)=NO2)CN1C(=O)C(c1ccccc1)c1ccccc1 (stereo partly drawn)	inconclusive: 6.31 µM [inhibitor, single point]	–	–
CC(=O)Nc1ccc(-n2nnnc2SCC(=O)Nc2cccc(NC(=O)c3ccco3)c2)cc1	inconclusive: 39.8 µM [inhibitor, single point]	–	–

Reference: PubChem BioAssay AID2549 (National Center for Advancing Translational Sciences (NCATS), 2010)
